Assay results reported in article doi:10.1101/2021.04.11.438637.
Where two headings read alike, the source gives them in different places. These are yes or no findings as the source states them, for the method shown. For some of these results: Binding seen in cells or lysates may run through a third protein. Some binding calls cover weakened binding; strength is not graded here. Where a sequence is shown, tags or fusion partners need not be part of it. Each block holds one molecule with its values, some of them ahead of it.

Protein sequences, listed by entry. Tags and fused reporters are not part of them.
UniProt Q9FKN7: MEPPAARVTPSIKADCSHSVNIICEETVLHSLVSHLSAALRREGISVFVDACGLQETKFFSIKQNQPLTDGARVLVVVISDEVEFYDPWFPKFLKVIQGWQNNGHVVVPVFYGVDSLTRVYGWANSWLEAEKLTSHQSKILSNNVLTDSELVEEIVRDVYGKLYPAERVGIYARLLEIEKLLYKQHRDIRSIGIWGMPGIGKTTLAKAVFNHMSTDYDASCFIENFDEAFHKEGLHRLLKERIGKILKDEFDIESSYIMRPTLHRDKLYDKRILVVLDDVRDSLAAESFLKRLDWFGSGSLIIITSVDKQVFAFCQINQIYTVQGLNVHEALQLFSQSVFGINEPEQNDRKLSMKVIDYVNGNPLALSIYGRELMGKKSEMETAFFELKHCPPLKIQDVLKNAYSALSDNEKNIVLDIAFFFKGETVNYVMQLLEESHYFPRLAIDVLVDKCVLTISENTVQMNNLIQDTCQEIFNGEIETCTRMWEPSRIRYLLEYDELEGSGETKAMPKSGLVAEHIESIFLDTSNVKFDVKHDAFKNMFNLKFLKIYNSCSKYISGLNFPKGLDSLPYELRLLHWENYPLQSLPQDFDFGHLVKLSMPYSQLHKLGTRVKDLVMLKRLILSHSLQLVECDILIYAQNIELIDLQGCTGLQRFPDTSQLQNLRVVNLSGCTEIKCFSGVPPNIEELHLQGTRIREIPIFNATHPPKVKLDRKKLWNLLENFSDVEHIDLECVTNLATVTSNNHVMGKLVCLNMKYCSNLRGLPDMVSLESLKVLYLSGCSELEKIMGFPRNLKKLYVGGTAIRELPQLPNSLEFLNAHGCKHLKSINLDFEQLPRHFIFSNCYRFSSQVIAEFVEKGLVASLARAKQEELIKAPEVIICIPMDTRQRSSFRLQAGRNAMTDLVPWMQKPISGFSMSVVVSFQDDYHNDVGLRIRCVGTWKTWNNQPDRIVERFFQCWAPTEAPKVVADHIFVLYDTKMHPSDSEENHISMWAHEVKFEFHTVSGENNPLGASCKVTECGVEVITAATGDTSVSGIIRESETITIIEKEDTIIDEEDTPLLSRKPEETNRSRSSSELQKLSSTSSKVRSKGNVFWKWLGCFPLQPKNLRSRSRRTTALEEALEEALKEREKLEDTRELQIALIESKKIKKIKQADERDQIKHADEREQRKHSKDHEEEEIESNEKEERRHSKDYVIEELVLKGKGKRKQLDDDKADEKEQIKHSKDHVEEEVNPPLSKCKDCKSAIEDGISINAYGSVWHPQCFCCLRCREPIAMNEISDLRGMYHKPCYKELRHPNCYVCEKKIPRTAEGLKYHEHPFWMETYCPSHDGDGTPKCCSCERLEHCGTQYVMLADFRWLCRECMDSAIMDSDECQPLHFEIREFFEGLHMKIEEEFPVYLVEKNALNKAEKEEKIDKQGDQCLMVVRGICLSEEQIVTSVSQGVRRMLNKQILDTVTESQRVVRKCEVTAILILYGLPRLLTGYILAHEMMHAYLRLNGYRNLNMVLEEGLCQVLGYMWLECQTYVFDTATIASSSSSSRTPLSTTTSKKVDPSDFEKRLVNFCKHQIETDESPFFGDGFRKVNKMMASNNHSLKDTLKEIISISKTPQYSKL

What was measured:
[1] = biological target: T1, BIR2-YFP (Arabidopsis thaliana) (UniProt Q9LSI9); assay: co-IP
T1 sequence: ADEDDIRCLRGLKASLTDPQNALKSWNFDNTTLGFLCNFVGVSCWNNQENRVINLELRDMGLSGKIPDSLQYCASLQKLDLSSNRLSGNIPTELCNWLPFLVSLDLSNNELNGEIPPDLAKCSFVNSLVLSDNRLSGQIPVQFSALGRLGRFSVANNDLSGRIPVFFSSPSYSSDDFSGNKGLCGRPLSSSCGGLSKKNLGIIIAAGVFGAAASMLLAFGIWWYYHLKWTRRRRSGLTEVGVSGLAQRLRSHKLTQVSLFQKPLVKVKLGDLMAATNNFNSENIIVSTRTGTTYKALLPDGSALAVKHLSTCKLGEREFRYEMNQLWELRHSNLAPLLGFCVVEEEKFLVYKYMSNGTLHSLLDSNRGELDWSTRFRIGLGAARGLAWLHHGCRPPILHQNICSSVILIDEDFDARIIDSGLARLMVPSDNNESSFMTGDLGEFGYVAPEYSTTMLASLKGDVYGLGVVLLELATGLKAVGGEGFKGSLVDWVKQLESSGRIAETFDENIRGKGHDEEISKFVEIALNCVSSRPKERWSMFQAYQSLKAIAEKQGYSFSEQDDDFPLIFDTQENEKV

[2] = biological target: T1, BIR2-YFP (Arabidopsis thaliana); assay: co-IP; remark: listed apart in the source
[3] = biological target: T2, BAK1, split-ubiquitin fusion (Arabidopsis thaliana) (UniProt Q94F62); assay: two-hybrid
T2 sequence: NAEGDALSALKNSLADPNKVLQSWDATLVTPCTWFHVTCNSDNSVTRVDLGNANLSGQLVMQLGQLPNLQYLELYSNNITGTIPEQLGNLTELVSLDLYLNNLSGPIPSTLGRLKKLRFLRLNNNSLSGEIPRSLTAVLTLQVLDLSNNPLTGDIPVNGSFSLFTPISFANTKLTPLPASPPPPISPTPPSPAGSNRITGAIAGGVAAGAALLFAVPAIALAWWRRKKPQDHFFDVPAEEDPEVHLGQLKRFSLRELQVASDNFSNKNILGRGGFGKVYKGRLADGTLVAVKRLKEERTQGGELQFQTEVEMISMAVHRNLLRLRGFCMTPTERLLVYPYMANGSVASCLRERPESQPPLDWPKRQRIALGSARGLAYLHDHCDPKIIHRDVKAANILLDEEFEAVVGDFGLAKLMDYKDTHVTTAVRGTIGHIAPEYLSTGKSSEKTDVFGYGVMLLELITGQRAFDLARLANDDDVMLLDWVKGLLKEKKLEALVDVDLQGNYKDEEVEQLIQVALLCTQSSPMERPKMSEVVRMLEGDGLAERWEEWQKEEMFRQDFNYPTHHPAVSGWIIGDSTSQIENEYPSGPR

[4] = biological target: T3, BAK1-Nluc (Arabidopsis thaliana) (UniProt Q94F62); assay: split reporter
T3 sequence: T2 sequence

Molecule: CHS3-V5 (from UniProt Q9FKN7 1-1613)
binding [1]: binds

B2: CSA1, split-ubiquitin fusion (protein, UniProt F4KIF3 1-1197)
chain: MTSSSSWVKTDGETPQDQVFINFRGVELRKNFVSHLEKGLKRKGINAFIDTDEEMGQELSVLLERIEGSRIALAIFSPRYTESKWCLKELAKMKERTEQKELVVIPIFYKVQPVTVKELKGDFGDKFRELVKSTDKKTKKEWKEALQYVPFLTGIVLDEKSDEDEVINIIIRKVKEILNRRSEGPPSKCSALPPQRHQKRHETFWGIELRIKQLEEKLRFGSDETTRTIGVVGMPGIGKTTLATMLYEKWNDRFLRHVLIRDIHEASEEDGLNYLATKFLQGLLKVENANIESVQAAHEAYKDQLLETKVLVILDNVSNKDQVDALLGERNWIKKGSKILITTSDKSLMIQSLVNDTYEVPPLSDKDAIKHFIRYAFDGNEGAAPGPGQGNFPKLSKDFVHYTKGNPLALQMLGKELLGKDESHWGLKLNALDQHHNSPPGQSICKMLQRVWEGSYKALSQKEKDALLDIACFRSQDENYVASLLDSDGPSNILEDLVNKFMINIYAGKVDMHDTLYMLSKELGREATATDRKGRHRLWHHHTIIAVLDKNKGGSNIRSIFLDLSDITRKWCFYRHAFAMMRDLRYLKIYSTHCPQECESDIKLNFPEGLLLPLNEVRYLHWLKFPLKEVPQDFNPGNLVDLKLPYSEIERVWEDNKDAPKLKWVNLNHSKKLNTLAGLGKAQNLQELNLEGCTALKEMHVDMENMKFLVFLNLRGCTSLKSLPEIQLISLKTLILSGCSKFKTFQVISDKLEALYLDGTAIKELPCDIGRLQRLVMLNMKGCKKLKRLPDSLGQLKALEELILSGCSKLNEFPETWGNMSRLEILLLDETAIKDMPKILSVRRLCLNKNEKISRLPDLLNKFSQLQWLHLKYCKNLTHVPQLPPNLQYLNVHGCSSLKTVAKPLVCSIPMKHVNSSFIFTNCNELEQAAKEEIVVYAERKCHLLASALKRCDESCVPEILFCTSFPGCEMPSWFSHDAIGSMVEFELPPHWNHNRLSGIALCVVVSFKNCKSHANLIVKFSCEQNNGEGSSSSITWKVGSLIEQDNQEETVESDHVFIGYTNCLDFIKLVKGQGGPKCAPTKASLEFSVRTGTGGEATLEVLKSGFSFVFEPEENRVPSPRNDDVKGKVKINKTPSANGCFKDQAKGNESPKGQWQTYIENSSTNIPSEAHSSQKTGFNGFNGMYSVCVLYEMYSH
binding [3]: no binding

The remaining lines, values ahead:

binding [2]: binds
B1: CSA1-V5 (protein, UniProt F4KIF3 1-1197)
chain: B2 chain

binding [4]: no binding
B3: CSA1-Cluc (protein, UniProt F4KIF3 1-1197)
chain: B2 chain
